The assay concerns the target mEGFP-Cdc42 (UniProt P60953). The assay can be described thus: FRET or BRET; 2pFLIM of two-component FRET sensors (mEGFP-GTPase donor; effector binding domain between two red fluorescent proteins as acceptor) in CA1 pyramidal neurons of mouse organotypic hippocampal slices; binding fraction in single spines before and after glutamate uncaging (30 pulses at 0.5 Hz); slices from WT and PKCα KO littermates, also KO with PKCα or PKCα-no PDZ; room temperature. Background: Bioluminescence resonance energy transfer reports proximity on the nanometre scale.

The chains behind the UniProt entries cited, without tags or fusion partners. Where a name states a change or a piece, a line headed by the entry shows the natural chain unless it says otherwise.
UniProt P60953: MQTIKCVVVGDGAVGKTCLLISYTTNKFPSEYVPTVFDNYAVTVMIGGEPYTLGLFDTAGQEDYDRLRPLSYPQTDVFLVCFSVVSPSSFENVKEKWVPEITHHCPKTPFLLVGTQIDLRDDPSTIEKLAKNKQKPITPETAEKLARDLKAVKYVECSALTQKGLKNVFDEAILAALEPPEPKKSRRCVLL
UniProt O75914: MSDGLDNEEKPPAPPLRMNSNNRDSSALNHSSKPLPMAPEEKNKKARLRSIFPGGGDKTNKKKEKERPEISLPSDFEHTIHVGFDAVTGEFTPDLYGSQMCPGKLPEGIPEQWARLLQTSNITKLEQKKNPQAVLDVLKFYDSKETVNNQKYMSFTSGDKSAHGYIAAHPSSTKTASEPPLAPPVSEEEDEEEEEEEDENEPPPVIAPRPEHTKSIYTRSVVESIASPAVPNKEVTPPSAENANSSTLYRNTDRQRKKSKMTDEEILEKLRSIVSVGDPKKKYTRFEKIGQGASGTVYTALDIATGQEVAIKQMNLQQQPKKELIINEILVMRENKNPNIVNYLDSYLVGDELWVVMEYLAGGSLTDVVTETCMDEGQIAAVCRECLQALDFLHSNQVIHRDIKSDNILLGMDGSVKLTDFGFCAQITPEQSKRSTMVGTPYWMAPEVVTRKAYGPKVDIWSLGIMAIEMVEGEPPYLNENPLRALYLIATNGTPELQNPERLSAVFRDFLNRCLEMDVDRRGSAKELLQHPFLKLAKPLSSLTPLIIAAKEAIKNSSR

Results are given in words; binding and its absence hold for the method and conditions named. Binding seen in cells or lysates may run through a third protein. Binding calls can cover weak binding; strength is not graded here.

As for “mCherry-Pak3(60-113)/S74A/F84A-mCherry-C1 (from UniProt O75914) (domain or fragment)”, the binding result is given as “binds”.

For the origin of these results see publication PMC7000694.
